Results of single-concentration screens

The chains behind the UniProt entries cited, without tags or fusion partners. Residues count along the entry.
UniProt P9WPC5, whole entry: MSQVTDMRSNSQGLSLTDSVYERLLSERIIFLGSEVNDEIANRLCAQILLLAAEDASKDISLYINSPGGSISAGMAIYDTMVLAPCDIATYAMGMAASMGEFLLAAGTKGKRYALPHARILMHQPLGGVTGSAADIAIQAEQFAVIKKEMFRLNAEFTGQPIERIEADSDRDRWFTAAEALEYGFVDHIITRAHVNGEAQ
UniProt P9WPC3, whole entry partner: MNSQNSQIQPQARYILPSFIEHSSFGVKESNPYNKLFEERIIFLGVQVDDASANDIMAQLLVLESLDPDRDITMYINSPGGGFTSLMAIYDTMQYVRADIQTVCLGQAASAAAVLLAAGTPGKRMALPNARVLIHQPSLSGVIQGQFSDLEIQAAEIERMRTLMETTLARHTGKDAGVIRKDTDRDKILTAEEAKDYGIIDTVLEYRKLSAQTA
UniProt A4I591, 1-473: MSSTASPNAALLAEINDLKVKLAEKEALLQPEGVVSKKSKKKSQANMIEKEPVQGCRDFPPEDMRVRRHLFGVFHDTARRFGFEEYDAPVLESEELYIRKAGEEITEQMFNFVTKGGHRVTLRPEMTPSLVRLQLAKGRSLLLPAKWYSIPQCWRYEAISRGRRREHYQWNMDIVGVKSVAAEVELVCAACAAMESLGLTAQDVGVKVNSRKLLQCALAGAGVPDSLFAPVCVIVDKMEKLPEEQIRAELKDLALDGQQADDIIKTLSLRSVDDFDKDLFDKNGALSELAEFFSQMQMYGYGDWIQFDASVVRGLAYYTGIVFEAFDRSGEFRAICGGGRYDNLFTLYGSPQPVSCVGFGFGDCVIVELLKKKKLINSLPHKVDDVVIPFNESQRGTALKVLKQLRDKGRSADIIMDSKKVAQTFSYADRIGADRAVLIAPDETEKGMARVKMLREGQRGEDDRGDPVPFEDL

From ChEMBL document CHEMBL3988442, “University of Dundee, Small-Polar-MMV Screening Library” (2021).

ClpP1P2: 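ClpP1P2, Mycobacterium tuberculosis (UniProt P9WPC5 and UniProt P9WPC3). Protease assay of ClpP1P2, read by the AMC dye that it sets free. Tested at 50 µM. Higher reads as stronger inhibition, judged from the few compounds that gave an IC50. Most other retested compounds had strongly negative values. Size under these conditions: about 69,000 compounds, about 10 of them at 50% or above in at least one test.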
LiHisRS: 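Enzyme assay of histidyl-tRNA synthetase; the read-out is not stated. Target: Histidine-tRNA ligase, Leishmania infantum (UniProt A4I591). Concentration: 30 µM. Higher reads as stronger inhibition (inferred: compounds with an IC50 in retests scored well above the rest). The assay is labelled LdHisRS but filed under L. infantum. Of about 69,000 compounds tested this way, about 410 (0.6%) reached 50% or more in at least one test.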

Each number is a percent effect as filed. The controls that fix the scale are not given in the record; negative values are as filed. Compounds were drawn at random from those tested, without regard to their results.

| Compound | ClpP1P2 | LiHisRS |
|---|---|---|
| `O=C(c1ccncc1)N1CC[C@@H]2[C@@H](CC1)OCCN2c1cccnc1` | 2.244 | 17.54 |
| `Fc1ccc(-c2cnc(CN3CCn4c(nnc4C4CC4)C3)o2)cc1` | -36.24 | 28.57 |
| `CN1CSC[C@H]1C(=O)N1CCC(CCc2ccccc2)CC1` | 6.662 | -9.804 |
| `CCn1cc(CN2CCCN(C(=O)CCc3ccccc3)CC2)cn1` | 8.998 | 12.17 |
| `CN(C)S(=O)(=O)N1CCC2(CC1)CC(Oc1ccccn1)CO2` (centres undefined) | -15.3 | 12.28 |
| `COc1cc(OC)cc(C(=O)NCC(c2cccn2C)N2CCCC2)c1` (centres undefined) | 18.51 | 15.07 |
| `COc1cccc(CNC(=O)N2CCN3CCNC(=O)C3C2)c1` (centres undefined) | 2.307 | 5.333 |
| `Cc1ccc(NC2CCN(C(=O)c3nccc4ccccc34)CC2)nn1` | -16.41 | 14.29 |
| `CNS(=O)(=O)c1cc(C(=O)NC2COc3ccccc3C2)ccc1OC` (centres undefined) | 3.443 | -3.333 |
| `COc1ccc(OCc2nc(C(=O)NCCN3CCOCC3)co2)cc1` | -8.393 | 0 |
| `CNC(=O)[C@@]12CCO[C@@H]1CCN(Cc1cccc(C)c1)C2` | -3.822 | 15 |
| `CS(=O)(=O)CC(=O)N1C[C@@H]2CN(Cc3ccoc3)CCO[C@@H]2C1` | -14.97 | 7 |
| `O=C(c1ccco1)N1CCO[C@@H]2CN(CC3CC3)CC[C@@H]2C1` | -3.88 | 26 |
| `CC(OCC1CC1)C(=O)Nc1ncn(CC(=O)N2CCCCCC2)n1` (centres undefined) | -20.32 | 9.174 |
| `CCc1cccc(NC(=O)CCN2CC=C(c3cnn(C)c3)CC2)c1` | 1.099 | 19.47 |
| `CC(C)(O)CNc1ccc(C#N)c(C(F)(F)F)c1` | -3.699 | 5.479 |
| `CCOc1ccccc1NC(=O)NCC(C)(O)CCSC` (centres undefined) | 0.7585 | 12.17 |
| `c1cnc(-c2nc(CN3CCCC(N4CCCC4)C3)cs2)nc1` (centres undefined) | -20.06 | 22.02 |
| `Cn1cc(CN2CC[C@H]3O[C@@H](COCc4cccnc4)CC[C@H]32)cn1` | 0.5238 | 17 |
| `CS(=O)(=O)Cc1ccc(C(=O)Nc2ccc3c(c2)C(=O)NC3)cc1` | -16.98 | 16.46 |
| `CCO[C@@H]1CN(S(=O)(=O)c2cn(C)cn2)[C@@H]2CCCO[C@@H]21` | 3.429 | 3.03 |
| `O=C(c1cccc(F)c1Cl)N(CCO)CC1CC1` | -2.768 | 5.357 |
| `CN(C)c1cc(CNC(=O)c2cnccn2)ccn1` | -41.24 | 13.27 |
| `Cc1nc(CN2CCCN(Cc3nccn3C(C)C)CC2)no1` | -24.33 | 15.52 |
| `CC(C)c1cc(NC(=O)CNC2CCc3ncnn3C2)on1` (centres undefined) | -4.013 | 7.865 |
| `CCn1cc(CN2C[C@H]3CC[C@@H]2CN(C(=O)C2CCC2)C3)cn1` | 1.957 | -253.5 |
| `O=C(c1ccc(-c2cccc3c2CCNC3)o1)N1CCOCC1` | -17.85 | 24.59 |
| `CC(=O)N1CCCn2c(nc(CNS(=O)(=O)C3CC3)cc2=O)C1` | -8.995 | 12 |
| `Cc1cn2nc(N3CCCC3Cn3nc(C)nc3C)sc2n1` (centres undefined) | -19.2 | 13.68 |
| `N#Cc1cccnc1OC1CCN(S(=O)(=O)c2c(F)cccc2F)CC1` | -6.984 | 17.07 |
| `O=C1COC2(COCCN(Cc3ccsc3)C2)CN1c1ccc(F)cc1` (centres undefined) | -6.109 | 7.843 |
| `CN(C)CCn1ccc2cc(NC(=O)NCc3ncnn3C)ccc21` | 12.3 | 12.7 |
| `Cc1ccc(C(=O)O)cc1-c1cccc(C(C)N(C)C)c1` (centres undefined) | 7.746 | 12.68 |
| `CN(C)CC(C)(C)Cn1cnc(-c2ccccc2)c1-c1ccncc1` | -2.727 | 14.94 |
| `N#Cc1c(N)nc2c(c1-c1c[nH]nc1C1CCCCC1)CC(N)CC2` (centres undefined) | 3.277 | 42.48 |
| `Cc1ccc(-c2nc(C(=O)N3CCCCC3CNS(C)(=O)=O)cs2)cc1` (centres undefined) | -9.351 | 21.92 |
| `CCN(CC)Cc1ccc(C(=O)N2CCCC2Cn2cc(C)cn2)o1` (centres undefined) | -25.4 | 9.174 |
| `Cc1cc(CN(C)C(=O)c2cccc(CCC(C)(C)O)c2)no1` | 10.41 | 13.54 |
| `N#Cc1ccccc1CN1CCC(c2nccn2CC2CCC2)CC1` | -7.397 | 15.08 |
| `CNc1snc(C)c1C(=O)N1CCCC(n2nc(C)nc2C)C1` (centres undefined) | -27.2 | 1.724 |
| `CC(C)N(C)CCNC(=O)N(C)CC1CCOCC1` | 1.436 | 0 |
| `CNc1cc(C(=O)N2CCCCC2CCn2ccnc2C)ccn1` (centres undefined) | -10.12 | -8.333 |
| `CCC(CC)C(CNC(=O)Nc1cc(C)nn1C)N1CCOCC1` (centres undefined) | 0.1729 | -23.6 |
| `COc1ccc(OC)c(C2CCN(Cc3nc(C)n4ccccc34)C2)c1` (centres undefined) | -5.444 | 30.48 |
| `O=C(CCC1CCN(C(=O)c2cc[nH]c2)CC1)NCc1cccc(Cl)c1` | -8.825 | 10.96 |
| `Cc1ccc(F)c(C(=O)N2C[C@@H](C(=O)O)[C@H](c3ccncc3)C2)c1Cl` | 11.48 | 10.45 |
| `Cc1noc(C)c1CNC(=O)N1Cc2ccccc2N(C)CC1C` (centres undefined) | -14.35 | 0 |
| `COc1c(CNCCNC(=O)c2ccc(C)c(F)c2)c(C)nn1C` | -10.75 | 16.36 |
| `Cc1ccn(CCNC(=O)C2CCN(S(=O)(=O)c3ccc(F)cc3)C2)n1` (centres undefined) | 13.12 | 3.448 |
| `COCC(=O)N1CCC2(CC1)CC(N1CCN(C)CC1)CO2` (centres undefined) | -4.029 | 13.68 |
| `O=C1[C@H]2CN(Cc3ccccc3)C[C@H]2CN1CCN1CCCC1` | 1.943 | 17.31 |
| `CN(Cc1cc(C(C)(C)C)n[nH]1)C(=O)c1c[nH]nc1-c1cccc(F)c1` | 4.608 | 11.48 |
| `CN(C)C(=O)c1cc(-c2ccccc2)[nH]n1` | -2.223 | 9.901 |
| `CC(C)=CCN1CCN(Cc2nccn2C)[C@H]2CS(=O)(=O)C[C@H]21` | -11.49 | 11.19 |
| `CS(=O)(=O)N1CC2(CCN(CC3CCCCC3)CC2)Cc2ccccc21` | 18.28 | -13.79 |
| `CNc1nc2c(s1)C(c1ccc(F)cc1Cl)CC(=O)N2` (centres undefined) | -26.86 | 7.5 |
| `CNc1nc(CNC(=O)Nc2cccc(C)c2Cl)cs1` | -23.26 | 12.5 |
| `COc1ccnc(CN2CC(=O)N(c3ccc(C)cc3)CC2C)c1OC` (centres undefined) | 1.122 | 24.44 |
| `Cc1ccc2c(c1)C(NC(=O)N(C)C)CC21CCN(CC2CC2)CC1` (centres undefined) | -12.29 | 4.167 |
| `Cc1cccc(OCCCNC(=O)Cn2ccc(C)cc2=O)c1` | -8.313 | 4.762 |
| `O=C(C1CCCO1)N1CCC2(CC1)COCCN(Cc1cccnc1)C2` (centres undefined) | -0.4733 | 2.727 |
| `COCC[C@]1(O)CCN(C(=O)CCn2c(C)cccc2=O)C[C@H]1C` | 1.004 | -1.429 |
| `COc1ccc(N(CCC(N)=O)C(=O)CSc2ccc(F)c(F)c2)cc1` | -3.075 | 11.29 |
| `CS(=O)(=O)N1CCN2C(=O)N(C3CCCCC3)C[C@H]2C1` | -9.609 | 18.92 |
| `Cc1cc(C)n(CCC(=O)OCC(=O)N2CCc3sccc3C2)n1` | -0.6825 | 2.222 |
| `CCC(C)N(Cc1cnc(NC(C)C)nc1)Cc1ccsc1` (centres undefined) | -9.126 | 6.557 |
| `COc1cc(N2CCOC(c3ccc(F)cc3)C2)ncn1` (centres undefined) | -4.042 | 8.197 |
| `Cc1nc(CCNC(C)c2ccc3c(c2)OCCCO3)cs1` (centres undefined) | -16.48 | 0.885 |

The last 7 entries again:

COCC[C@]1(O)CCN(C(=O)CCn2c(C)cccc2=O)C[C@H]1C read ClpP1P2: 1.004%; LiHisRS: -1.429%.
COc1ccc(N(CCC(N)=O)C(=O)CSc2ccc(F)c(F)c2)cc1 read ClpP1P2: -3.075%; LiHisRS: 11.29%.
CS(=O)(=O)N1CCN2C(=O)N(C3CCCCC3)C[C@H]2C1 read ClpP1P2: -9.609%; LiHisRS: 18.92%.
Cc1cc(C)n(CCC(=O)OCC(=O)N2CCc3sccc3C2)n1 read ClpP1P2: -0.6825%; LiHisRS: 2.222%.
CCC(C)N(Cc1cnc(NC(C)C)nc1)Cc1ccsc1 (centres undefined) read ClpP1P2: -9.126%; LiHisRS: 6.557%.
COc1cc(N2CCOC(c3ccc(F)cc3)C2)ncn1 (centres undefined) read ClpP1P2: -4.042%; LiHisRS: 8.197%.
Cc1nc(CCNC(C)c2ccc3c(c2)OCCCO3)cs1 (centres undefined) read ClpP1P2: -16.48%; LiHisRS: 0.885%.